Data published in PubChem BioAssay AID651640 (Broad Institute, 2012).
Screen size: about 350,000 compounds; about 6,000 (1.7%) were called active. Inconclusive means that the source gave no clear call. Such entries were picked first, then a sample of the others. Cut-off read from the data, not from the text of the source: active = CPE inhibition above about 20% (passing the limit was not always enough); inconclusive = no clear call, values can overlap the other calls; tested in BHK-21 cells.

assay: protection of cells from dengue 2 killing – plate reader, single concentration, primary screen (AID 651640); conditions: DENV2-infected cells, cytopathic effect rescue, at 9.99 µM, stronger effect = higher value;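 note: 0% = median of neutral control wells and 100% = median of positive control wells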

SMILES	CPE inhibition
COc1ccc(-c2cc(NC(C)=O)c3ncc(-c4cccc(C(C)=O)c4)n3c2)cc1OC	active: 48.8%
CCOC(=O)C1CCN(C(=O)c2cc3c(C)cc(C)cc3[nH]2)CC1	inconclusive: 23.9%
CC(C)NC(=O)N(C)C[C@H]1OCCCC[C@@H](C)Oc2ccc(NS(=O)(=O)c3cccs3)cc2C(=O)N([C@@H](C)CO)C[C@H]1C	inconclusive: 26.1%
C[C@H]1CN([C@@H](C)CO)C(=O)c2cc(NC(=O)Cc3ccccc3)ccc2O[C@H]1CN(C)Cc1ccc2c(c1)OCO2	inconclusive: 21.8%
O=C(C[C@@H]1C[C@H]2c3cc(NC(=O)Nc4ccccc4F)ccc3O[C@H]2[C@H](CO)O1)NCc1cc(F)ccc1F	inconclusive: 63.9%
CCN(CC)CCNC(=O)c1ccc(NC(=O)c2ccc(-n3cncn3)c([N+](=O)[O-])c2)cc1	inactive: 4.37%
COc1cccc(OC)c1C(=O)NC(=S)Nc1ccc2c(c1)OCCO2	inactive: -8.93%
COc1ccc(Br)c2oc(SC)cc(=O)c12	active: 81.9%
COc1ccc(C(=O)N2CCN(S(=O)(=O)c3ccc(C)cc3)CC2)cc1S(=O)(=O)N1CCOCC1	inactive: -4.84%
C[C@@H]1CN([C@@H](C)CO)C(=O)CCCn2cc(nn2)CO[C@H]1CN(C)C(=O)Nc1ccc(-c2cccs2)cc1	inconclusive: 30.4%
COc1ccc(NC(=O)C2(c3ccc(NC(=O)c4ccc(C)cc4)cc3)CCCC2)cc1	inactive: 2.02%
Cc1cccnc1C(NC(=O)C1CCN(Cc2ccccc2)CC1)c1ccc(F)cc1 (centres undefined)	inconclusive: 20.4%
C[C@@H]1CCCCO[C@@H](CN(C)C(=O)Nc2cccc3ccccc23)[C@H](C)CN([C@@H](C)CO)C(=O)c2cc(NS(=O)(=O)c3cn(C)cn3)ccc2O1	active: 21.5%
C/C=C/c1ccc([C@@H]2[C@H](CO)N(Cc3cncnc3)C23CN(C(=O)COC)C3)cc1	active: 22.1%
Cc1cc(C)c2c(=O)n(CC(=O)N3CCN(c4ccccc4)CC3)ccc2n1	inactive: -9.52%
COc1cccc(C(=O)Nc2ccc3c(c2)C(=O)N(C)[C@@H]2CC[C@H](CC(=O)N[C@H](C)c4ccccc4)O[C@@H]2CO3)c1	inconclusive: 50.6%
COc1ccc2oc(C(=O)OCC(=O)NCCc3ccc(S(N)(=O)=O)cc3)c(C)c2c1	inactive: -1.3%
COC(=O)c1cc(C)sc1NC(=O)CN1CCN(C(=O)C2CCCO2)CC1 (centres undefined)	inconclusive: 21.5%
Cc1ccc(S(=O)(=O)N(CC(=O)NCc2ccc(F)cc2)C(=O)N2CCN(C)CC2)cc1	active: 31%
